No constants are given. Whether binding was seen depends on the method and setting.
Target: T1, fluorescein-labeled 4E-BP1 peptide (human)
T1 sequence (peptide, Fluorescein isothiocyanate (FITC) conjugated at the Lys residue): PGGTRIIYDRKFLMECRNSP
Assay: fluorescence polarisation; fluorescence anisotropy; 20 nM FITC-labelled 4E-BP1 peptide, free or preincubated with 10 nM eIF4E for 20 min at 25 °C, titrated with protein (eIF4E: 200 ul of 20 nM peptide with 2.5 uM eIF4E); no mRNA; Hill-equation fit; both purified

The chains behind the UniProt entries cited, without tags or fusion partners. Residues count along the entry.
UniProt Q04637, residues 557-1599: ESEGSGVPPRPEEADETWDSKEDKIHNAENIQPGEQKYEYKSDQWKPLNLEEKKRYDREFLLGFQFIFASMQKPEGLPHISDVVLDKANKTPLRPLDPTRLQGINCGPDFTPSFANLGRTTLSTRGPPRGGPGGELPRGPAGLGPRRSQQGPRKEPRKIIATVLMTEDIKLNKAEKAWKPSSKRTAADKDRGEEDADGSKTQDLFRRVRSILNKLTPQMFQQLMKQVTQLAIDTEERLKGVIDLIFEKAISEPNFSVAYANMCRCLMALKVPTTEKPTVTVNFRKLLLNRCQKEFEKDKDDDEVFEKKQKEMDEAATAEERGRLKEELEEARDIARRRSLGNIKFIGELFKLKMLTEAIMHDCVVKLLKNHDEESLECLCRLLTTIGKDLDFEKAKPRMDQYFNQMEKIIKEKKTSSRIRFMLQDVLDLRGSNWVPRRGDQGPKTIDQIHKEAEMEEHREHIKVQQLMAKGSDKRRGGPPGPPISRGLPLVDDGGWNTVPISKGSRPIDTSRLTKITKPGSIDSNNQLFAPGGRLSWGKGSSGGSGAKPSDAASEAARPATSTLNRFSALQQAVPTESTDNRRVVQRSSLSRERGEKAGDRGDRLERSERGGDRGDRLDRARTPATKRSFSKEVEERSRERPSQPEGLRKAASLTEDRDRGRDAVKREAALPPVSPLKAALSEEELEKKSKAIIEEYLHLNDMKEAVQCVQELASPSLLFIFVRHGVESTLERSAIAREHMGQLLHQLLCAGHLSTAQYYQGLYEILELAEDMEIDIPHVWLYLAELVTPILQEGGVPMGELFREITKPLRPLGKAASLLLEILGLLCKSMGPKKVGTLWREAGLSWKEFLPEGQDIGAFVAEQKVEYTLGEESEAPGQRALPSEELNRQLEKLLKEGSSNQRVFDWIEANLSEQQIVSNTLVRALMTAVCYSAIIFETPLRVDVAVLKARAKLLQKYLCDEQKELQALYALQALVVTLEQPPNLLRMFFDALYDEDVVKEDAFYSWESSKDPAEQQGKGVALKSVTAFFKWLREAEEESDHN

- binding: no binding
Substance: eIF4GI_(557-1599) (from UniProt Q04637 557-1599) (domain or fragment)
